The text below walks through data of patent US20090054500.

By UniProt entry, the sequences of proteins in these tests, tags left out. Where a name states a change or a piece, a line headed by the entry shows the natural chain unless it says otherwise.
UniProt Q08369: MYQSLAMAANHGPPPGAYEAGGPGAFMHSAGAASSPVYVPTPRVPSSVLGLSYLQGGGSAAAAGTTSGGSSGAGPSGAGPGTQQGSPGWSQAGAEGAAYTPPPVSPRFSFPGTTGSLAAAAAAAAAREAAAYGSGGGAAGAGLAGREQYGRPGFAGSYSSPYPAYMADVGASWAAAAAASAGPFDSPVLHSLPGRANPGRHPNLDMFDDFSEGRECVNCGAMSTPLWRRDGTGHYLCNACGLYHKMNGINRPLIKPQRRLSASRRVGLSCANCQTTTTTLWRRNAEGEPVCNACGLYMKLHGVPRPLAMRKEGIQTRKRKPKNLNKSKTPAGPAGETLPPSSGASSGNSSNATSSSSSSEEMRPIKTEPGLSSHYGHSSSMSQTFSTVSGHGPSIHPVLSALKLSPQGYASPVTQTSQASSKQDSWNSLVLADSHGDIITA

Construct, isoform or probe ends are uncertain for at least one entry. For part of these data: Negatives hold for the conditions tested. For part of these data: Weaker means in comparison with the reference protein, sequence or condition of that experiment.

The subject of one data set is GATA4 + CHF1/Hey2. Description: EMSA. The following applies: CHF1/Hey2 added to GATA4 inhibits GATA4 complex formation dose-dependently; effect relatively weak (p54); protein translated in vitro; protein details: in vitro transcription/translation kit (Promega); label: labeled (standard methods).
The target of data set [1] is GATA4 (UniProt Q08369). In words: EMSA. The following applies: 10 mM Tris pH 7.4, 50 mM NaCl, 1 mM DTT, 1 mM EDTA, 4% glycerol; unlabeled oligo competes; protein translated in vitro; protein details: in vitro transcription/translation kit (Promega); label: labeled (standard methods).
Data set [2] addresses GATA4 (UniProt Q08369). In words: competition with a labelled probe. The following applies: unlabeled mutant oligo fails to compete for GATA4 binding in EMSA; protein translated in vitro; protein details: in vitro transcription/translation kit (Promega); variant of ANF promoter GATA4 site.

Take “CTTTTAAAGTTATCAGCTCAGCGAAGC / GCTTCGCTGGACTGATAACTTTAAAAG [ANF promoter GATA4 site]”: the binding result in the data set on GATA4 + CHF1/Hey2 is “binds more weakly”; with GATA4 [1] it was “binds”.

“CTTTTAAAGTTAAGAGCTCAGCGAAGC / GCTTCGCTGGACTCTTAACTTTAAAAG [ANF promoter GATA4 site mutant]”: in the data set with GATA4 [2], the binding result is “no binding”.
